Measured values published in the supplement of paper PMC12823440, “Inhibitors supercharge kinase turnover through native proteolytic circuits” (Nature, 2025).
Where a name gives a salt, the structure may show the parent alone. Some of the results follow. The calls rarely recur for the same compound in another form.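 Kinases, fused to nanoluciferase, were expressed in K562 cells; luminescence was measured every 4 h from 2 to 18 h as percent of control (DMSO = 100%, positive control = 0%). A time point is decreased if signal falls significantly (2 sigma). Hits were called by the authors by a rule that is not shown; the count of time points alone does not decide it.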

Protein sequences, listed by entry. Tags and fused reporters are not part of them. Lines headed by an entry give the natural chain unless they say otherwise; changes in a name come on top.
UniProt Q13131: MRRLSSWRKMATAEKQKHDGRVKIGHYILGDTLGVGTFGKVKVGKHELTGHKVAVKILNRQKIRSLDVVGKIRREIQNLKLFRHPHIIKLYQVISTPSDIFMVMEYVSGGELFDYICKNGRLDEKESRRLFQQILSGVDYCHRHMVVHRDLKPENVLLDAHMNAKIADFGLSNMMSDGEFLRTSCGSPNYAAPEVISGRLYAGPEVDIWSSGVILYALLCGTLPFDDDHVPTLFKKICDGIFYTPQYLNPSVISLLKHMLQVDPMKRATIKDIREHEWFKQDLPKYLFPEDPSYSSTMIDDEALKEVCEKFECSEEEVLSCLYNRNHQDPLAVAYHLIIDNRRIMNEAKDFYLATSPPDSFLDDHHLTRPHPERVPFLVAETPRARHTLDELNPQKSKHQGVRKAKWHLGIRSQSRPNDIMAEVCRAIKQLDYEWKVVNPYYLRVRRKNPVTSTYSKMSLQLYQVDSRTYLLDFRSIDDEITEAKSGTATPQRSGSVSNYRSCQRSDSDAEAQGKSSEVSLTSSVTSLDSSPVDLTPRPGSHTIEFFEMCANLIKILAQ
UniProt Q14289, whole entry, looked up: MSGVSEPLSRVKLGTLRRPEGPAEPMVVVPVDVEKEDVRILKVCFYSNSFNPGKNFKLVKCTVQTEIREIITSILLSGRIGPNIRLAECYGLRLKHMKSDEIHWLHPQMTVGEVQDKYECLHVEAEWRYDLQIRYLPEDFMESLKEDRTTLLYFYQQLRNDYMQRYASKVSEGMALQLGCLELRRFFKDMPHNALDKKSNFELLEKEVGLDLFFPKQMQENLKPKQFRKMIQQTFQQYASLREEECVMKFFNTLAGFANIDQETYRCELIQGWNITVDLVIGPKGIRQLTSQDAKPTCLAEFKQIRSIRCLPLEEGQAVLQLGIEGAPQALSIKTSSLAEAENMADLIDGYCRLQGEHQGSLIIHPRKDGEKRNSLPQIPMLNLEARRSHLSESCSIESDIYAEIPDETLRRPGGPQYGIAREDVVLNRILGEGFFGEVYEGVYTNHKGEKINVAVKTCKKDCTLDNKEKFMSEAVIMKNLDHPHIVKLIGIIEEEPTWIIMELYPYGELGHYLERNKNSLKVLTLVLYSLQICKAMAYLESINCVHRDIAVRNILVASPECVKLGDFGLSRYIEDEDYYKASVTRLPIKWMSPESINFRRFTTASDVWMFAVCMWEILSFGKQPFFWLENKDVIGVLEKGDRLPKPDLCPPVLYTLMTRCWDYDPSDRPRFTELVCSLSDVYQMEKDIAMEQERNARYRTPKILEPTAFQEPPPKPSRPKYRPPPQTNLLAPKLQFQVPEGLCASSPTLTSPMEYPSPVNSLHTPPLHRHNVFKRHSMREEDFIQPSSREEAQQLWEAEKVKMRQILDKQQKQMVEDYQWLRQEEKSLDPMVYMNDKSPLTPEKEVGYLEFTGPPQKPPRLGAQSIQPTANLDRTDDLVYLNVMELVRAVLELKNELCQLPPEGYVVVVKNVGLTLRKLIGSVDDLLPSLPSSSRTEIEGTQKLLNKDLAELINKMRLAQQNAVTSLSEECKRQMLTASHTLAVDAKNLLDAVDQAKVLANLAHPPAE
UniProt P07949, whole entry, looked up: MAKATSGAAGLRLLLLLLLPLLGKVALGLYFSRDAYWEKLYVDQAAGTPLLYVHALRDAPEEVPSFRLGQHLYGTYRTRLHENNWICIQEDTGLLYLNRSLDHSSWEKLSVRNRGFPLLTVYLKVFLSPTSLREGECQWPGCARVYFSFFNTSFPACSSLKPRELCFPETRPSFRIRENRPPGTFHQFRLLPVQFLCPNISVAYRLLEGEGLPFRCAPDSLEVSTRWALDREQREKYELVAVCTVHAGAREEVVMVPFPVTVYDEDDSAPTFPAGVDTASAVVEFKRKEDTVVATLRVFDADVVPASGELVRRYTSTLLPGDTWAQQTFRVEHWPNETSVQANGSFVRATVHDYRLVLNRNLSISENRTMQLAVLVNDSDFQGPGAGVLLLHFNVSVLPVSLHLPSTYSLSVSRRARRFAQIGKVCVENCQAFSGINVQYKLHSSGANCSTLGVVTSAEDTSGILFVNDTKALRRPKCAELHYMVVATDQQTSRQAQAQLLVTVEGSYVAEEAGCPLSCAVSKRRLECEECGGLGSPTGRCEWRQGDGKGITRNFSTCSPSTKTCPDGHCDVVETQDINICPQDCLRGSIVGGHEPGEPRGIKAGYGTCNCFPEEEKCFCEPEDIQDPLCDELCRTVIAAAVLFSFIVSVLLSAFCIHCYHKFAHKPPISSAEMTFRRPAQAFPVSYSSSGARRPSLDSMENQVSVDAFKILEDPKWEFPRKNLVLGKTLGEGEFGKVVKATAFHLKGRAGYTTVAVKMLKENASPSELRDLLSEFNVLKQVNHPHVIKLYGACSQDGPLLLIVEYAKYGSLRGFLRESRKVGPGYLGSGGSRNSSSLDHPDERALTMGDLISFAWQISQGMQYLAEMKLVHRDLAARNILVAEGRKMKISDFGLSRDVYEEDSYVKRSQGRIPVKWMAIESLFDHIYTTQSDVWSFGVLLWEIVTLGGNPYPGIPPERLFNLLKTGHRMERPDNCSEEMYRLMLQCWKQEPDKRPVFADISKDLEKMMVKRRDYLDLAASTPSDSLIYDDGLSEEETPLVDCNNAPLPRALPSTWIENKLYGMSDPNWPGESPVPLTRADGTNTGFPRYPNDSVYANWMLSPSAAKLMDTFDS
UniProt P07949, whole entry M918T, looked up: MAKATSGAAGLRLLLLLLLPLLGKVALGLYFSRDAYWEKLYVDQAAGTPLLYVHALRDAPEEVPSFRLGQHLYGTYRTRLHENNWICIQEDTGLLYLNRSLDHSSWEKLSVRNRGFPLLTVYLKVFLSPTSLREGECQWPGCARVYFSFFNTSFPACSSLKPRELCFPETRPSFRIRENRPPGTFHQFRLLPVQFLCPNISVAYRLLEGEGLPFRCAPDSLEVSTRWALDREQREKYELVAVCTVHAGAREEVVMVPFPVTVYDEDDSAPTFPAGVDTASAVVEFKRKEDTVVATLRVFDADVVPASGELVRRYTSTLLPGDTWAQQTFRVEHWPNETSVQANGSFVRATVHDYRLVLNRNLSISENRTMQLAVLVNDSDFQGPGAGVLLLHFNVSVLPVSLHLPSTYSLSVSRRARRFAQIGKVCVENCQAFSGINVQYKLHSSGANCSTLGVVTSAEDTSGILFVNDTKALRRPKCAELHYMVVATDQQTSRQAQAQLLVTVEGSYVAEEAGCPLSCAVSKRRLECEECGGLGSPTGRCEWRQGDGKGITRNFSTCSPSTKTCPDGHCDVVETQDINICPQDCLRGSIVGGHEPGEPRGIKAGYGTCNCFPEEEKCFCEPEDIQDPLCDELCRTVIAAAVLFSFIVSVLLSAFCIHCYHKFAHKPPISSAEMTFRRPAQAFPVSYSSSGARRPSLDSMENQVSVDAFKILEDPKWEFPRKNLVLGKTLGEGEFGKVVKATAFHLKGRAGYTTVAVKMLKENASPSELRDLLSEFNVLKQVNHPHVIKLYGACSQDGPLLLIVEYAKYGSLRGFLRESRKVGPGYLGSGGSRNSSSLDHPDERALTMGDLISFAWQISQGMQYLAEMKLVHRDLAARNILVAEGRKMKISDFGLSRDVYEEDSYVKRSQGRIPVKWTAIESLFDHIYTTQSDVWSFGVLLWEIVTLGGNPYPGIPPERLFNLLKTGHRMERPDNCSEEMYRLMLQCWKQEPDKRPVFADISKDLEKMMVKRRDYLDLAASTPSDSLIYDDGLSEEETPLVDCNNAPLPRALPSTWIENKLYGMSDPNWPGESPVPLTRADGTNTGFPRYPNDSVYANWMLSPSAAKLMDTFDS
UniProt Q01974, whole entry: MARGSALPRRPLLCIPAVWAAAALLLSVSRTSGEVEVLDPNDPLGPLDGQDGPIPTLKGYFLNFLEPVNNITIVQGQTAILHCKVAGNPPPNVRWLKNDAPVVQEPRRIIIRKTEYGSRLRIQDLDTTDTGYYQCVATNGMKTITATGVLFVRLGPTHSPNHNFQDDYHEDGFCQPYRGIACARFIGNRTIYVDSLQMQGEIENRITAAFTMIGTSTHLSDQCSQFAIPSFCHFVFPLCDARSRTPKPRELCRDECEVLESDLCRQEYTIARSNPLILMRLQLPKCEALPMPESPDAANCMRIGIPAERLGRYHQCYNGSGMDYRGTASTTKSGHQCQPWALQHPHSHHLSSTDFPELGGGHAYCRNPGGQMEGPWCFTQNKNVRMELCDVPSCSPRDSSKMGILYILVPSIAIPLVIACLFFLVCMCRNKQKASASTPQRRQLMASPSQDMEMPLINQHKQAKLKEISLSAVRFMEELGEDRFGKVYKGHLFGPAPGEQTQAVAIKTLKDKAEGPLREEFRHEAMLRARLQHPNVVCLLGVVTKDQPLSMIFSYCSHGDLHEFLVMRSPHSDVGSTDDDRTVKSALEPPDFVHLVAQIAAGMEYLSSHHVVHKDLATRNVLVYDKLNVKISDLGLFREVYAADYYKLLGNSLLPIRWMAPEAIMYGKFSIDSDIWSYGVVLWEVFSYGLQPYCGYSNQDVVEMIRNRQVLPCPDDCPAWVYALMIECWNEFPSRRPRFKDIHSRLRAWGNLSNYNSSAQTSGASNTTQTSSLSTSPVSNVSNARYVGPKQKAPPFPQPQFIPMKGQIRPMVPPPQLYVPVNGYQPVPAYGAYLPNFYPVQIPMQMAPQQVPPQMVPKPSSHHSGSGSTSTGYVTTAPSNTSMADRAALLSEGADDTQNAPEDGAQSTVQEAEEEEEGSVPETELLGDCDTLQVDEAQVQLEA
UniProt Q15418, whole entry: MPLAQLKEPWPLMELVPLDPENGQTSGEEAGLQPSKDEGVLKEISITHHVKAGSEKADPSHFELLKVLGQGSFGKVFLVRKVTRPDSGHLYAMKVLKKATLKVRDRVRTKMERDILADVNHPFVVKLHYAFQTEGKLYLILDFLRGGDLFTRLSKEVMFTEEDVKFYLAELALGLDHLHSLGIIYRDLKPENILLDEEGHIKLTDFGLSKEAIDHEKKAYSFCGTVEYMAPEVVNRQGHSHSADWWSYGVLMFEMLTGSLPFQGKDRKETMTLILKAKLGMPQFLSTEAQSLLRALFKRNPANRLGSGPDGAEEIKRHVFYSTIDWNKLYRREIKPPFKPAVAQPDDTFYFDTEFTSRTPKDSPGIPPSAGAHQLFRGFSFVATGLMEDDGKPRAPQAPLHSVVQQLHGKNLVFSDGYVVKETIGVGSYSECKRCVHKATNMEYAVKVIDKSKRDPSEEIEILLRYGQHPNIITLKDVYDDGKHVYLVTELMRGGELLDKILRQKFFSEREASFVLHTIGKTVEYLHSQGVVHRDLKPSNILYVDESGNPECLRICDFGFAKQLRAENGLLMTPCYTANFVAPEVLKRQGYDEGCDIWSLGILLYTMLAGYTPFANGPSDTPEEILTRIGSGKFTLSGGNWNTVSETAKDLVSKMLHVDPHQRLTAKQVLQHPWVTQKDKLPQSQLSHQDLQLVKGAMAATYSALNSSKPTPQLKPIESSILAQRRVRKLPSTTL
UniProt Q9Y6E0: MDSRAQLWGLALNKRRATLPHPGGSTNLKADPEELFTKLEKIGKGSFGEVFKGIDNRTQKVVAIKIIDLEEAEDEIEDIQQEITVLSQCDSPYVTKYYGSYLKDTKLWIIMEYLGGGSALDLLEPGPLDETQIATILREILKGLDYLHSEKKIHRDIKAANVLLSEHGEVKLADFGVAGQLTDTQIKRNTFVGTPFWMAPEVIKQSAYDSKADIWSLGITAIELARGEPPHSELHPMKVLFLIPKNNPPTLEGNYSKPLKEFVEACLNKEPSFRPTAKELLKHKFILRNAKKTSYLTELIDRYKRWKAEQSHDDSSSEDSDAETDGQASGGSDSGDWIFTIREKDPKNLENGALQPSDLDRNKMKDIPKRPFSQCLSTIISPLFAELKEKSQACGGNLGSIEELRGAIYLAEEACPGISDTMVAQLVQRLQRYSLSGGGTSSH

Experiments:
Test in all cases: kinase-Nluc reporter destabilization hit call (1 = scored as downregulated) (binary); higher = compound decreases kinase abundance
Conditions in all cases: K562; 2-18 h
PDPK1 = PDPK1 (UniProt O15530)
PIK4CA = PIK4CA (UniProt P42356)
PIK4CB = PIK4CB (UniProt Q9UBF8)
PLK1 = PLK1 (UniProt P53350)
PRKAA1 = PRKAA1 (UniProt Q13131)
PRKCA = PRKCA (UniProt P17252)
PTK2 = PTK2 (UniProt Q05397)
PTK2B = PTK2B (UniProt Q14289)
RAF1 = RAF1 (UniProt P04049)
[1] = target: RAF1_S257L (clone: RAF1_mut) (UniProt P04049)
RET = RET (UniProt P07949)
[2] = target: RET_M918T (clone: RET_mut) (UniProt P07949)
RIOK1 = RIOK1 (UniProt Q9BRS2)
RIPK1 = RIPK1 (UniProt Q13546)
RIPK2 = RIPK2 (UniProt O43353)
ROR2 = ROR2 (UniProt Q01974)
RPS6KA1 = RPS6KA1 (UniProt Q15418)
SPHK1 = SPHK1 (UniProt Q9NYA1)
SRC = SRC (UniProt P12931)
STK24 = STK24 (UniProt Q9Y6E0)

Structure (SMILES) | kinase-Nluc reporter destabilization hit call (PDPK1) | kinase-Nluc reporter destabilization hit call (PIK4CA) | kinase-Nluc reporter destabilization hit call (PIK4CB) | kinase-Nluc reporter destabilization hit call (PLK1) | kinase-Nluc reporter destabilization hit call (PRKAA1) | kinase-Nluc reporter destabilization hit call (PRKCA) | kinase-Nluc reporter destabilization hit call (PTK2) | kinase-Nluc reporter destabilization hit call (PTK2B) | kinase-Nluc reporter destabilization hit call (RAF1) | kinase-Nluc reporter destabilization hit call [1] | kinase-Nluc reporter destabilization hit call (RET) | kinase-Nluc reporter destabilization hit call [2] | kinase-Nluc reporter destabilization hit call (RIOK1) | kinase-Nluc reporter destabilization hit call (RIPK1) | kinase-Nluc reporter destabilization hit call (RIPK2) | kinase-Nluc reporter destabilization hit call (ROR2) | kinase-Nluc reporter destabilization hit call (RPS6KA1) | kinase-Nluc reporter destabilization hit call (SPHK1) | kinase-Nluc reporter destabilization hit call (SRC) | kinase-Nluc reporter destabilization hit call (STK24)
C=C1CCC[C@]2(C)C=C3OC(=O)C(C)=C3C[C@@H]12 [Atractylenolide I] (10 µM) | inactive: 0 | inactive: 0 | inactive: 0 | inactive: 0 | inactive: 0 | inactive: 0 | inactive: 0 | inactive: 0 | inactive: 0 | inactive: 0 | inactive: 0 | inactive: 0 | inactive: 0 | inactive: 0 | inactive: 0 | inactive: 0 | inactive: 0 | inactive: 0 | inactive: 0 | inactive: 0
Cc1c(C(=O)Nc2ccc(Oc3ccnc4[nH]cc(-c5ccccc5)c34)c(F)c2)c(=O)n(-c2ccc(F)cc2)n1C (10 µM) | inactive: 0 | inactive: 0 | inactive: 0 | inactive: 0 | inactive: 0 | inactive: 0 | inactive: 0 | inactive: 0 | inactive: 0 | inactive: 0 | inactive: 0 | inactive: 0 | inactive: 0 | inactive: 0 | inactive: 0 | inactive: 0 | inactive: 0 | inactive: 0 | inactive: 0 | inactive: 0
Nc1nc(NCCNc2ncc(-n3ccnc3)c(-c3ccc(Cl)cc3Cl)n2)ccc1[N+](=O)[O-] (2.5 µM) | inactive: 0 | inactive: 0 | inactive: 0 | inactive: 0 | inactive: 0 | inactive: 0 | inactive: 0 | inactive: 0 | inactive: 0 | inactive: 0 | inactive: 0 | inactive: 0 | inactive: 0 | inactive: 0 | inactive: 0 | inactive: 0 | inactive: 0 | inactive: 0 | inactive: 0 | inactive: 0
C=CC(=O)Nc1cc(Nc2nccc(-c3cn(C)c4ccccc34)n2)c(OC)cc1N(C)CCNC [AZ7550 Mesylate] (2.5 µM) | inactive: 0 | inactive: 0 | inactive: 0 | inactive: 0 | inactive: 0 | inactive: 0 | inactive: 0 | inactive: 0 | inactive: 0 | inactive: 0 | inactive: 0 | inactive: 0 | inactive: 0 | inactive: 0 | inactive: 0 | inactive: 0 | inactive: 0 | inactive: 0 | inactive: 0 | inactive: 0
Cc1c(Cl)cccc1S(=O)(=O)Nc1nc(NCCc2ccccc2)nc2c1CN(Cc1ccccc1)CC2 (2.5 µM) | inactive: 0 | inactive: 0 | inactive: 0 | inactive: 0 | inactive: 0 | inactive: 0 | inactive: 0 | inactive: 0 | inactive: 0 | inactive: 0 | inactive: 0 | inactive: 0 | inactive: 0 | inactive: 0 | inactive: 0 | inactive: 0 | inactive: 0 | active: 1 | inactive: 0 | inactive: 0
CC(C)n1c(=O)n(C)c2cnc3cc(F)c(-c4ccc(OCCCN5CCCCC5)nc4)cc3c21 (10 µM) | inactive: 0 | inactive: 0 | inactive: 0 | inactive: 0 | inactive: 0 | inactive: 0 | inactive: 0 | inactive: 0 | inactive: 0 | inactive: 0 | inactive: 0 | inactive: 0 | inactive: 0 | inactive: 0 | inactive: 0 | inactive: 0 | inactive: 0 | inactive: 0 | inactive: 0 | inactive: 0
C=CC(=O)N1CC[C@@H](Oc2nc(Nc3ccc(N4CCC(N5CCN(C)CC5)CC4)cc3)c(C(N)=O)nc2CC)C1 [Naquotinib (mesylate)] (2.5 µM) | inactive: 0 | inactive: 0 | inactive: 0 | inactive: 0 | inactive: 0 | inactive: 0 | inactive: 0 | inactive: 0 | inactive: 0 | inactive: 0 | inactive: 0 | inactive: 0 | inactive: 0 | inactive: 0 | inactive: 0 | inactive: 0 | inactive: 0 | inactive: 0 | inactive: 0 | inactive: 0
COC(=O)[C@H](CCSC)NC(=O)c1ccc(NC[C@@H](N)CS)cc1-c1ccccc1 [FTI-277 (hydrochloride)] (10 µM) | inactive: 0 | inactive: 0 | inactive: 0 | inactive: 0 | inactive: 0 | inactive: 0 | inactive: 0 | inactive: 0 | inactive: 0 | inactive: 0 | inactive: 0 | inactive: 0 | inactive: 0 | inactive: 0 | inactive: 0 | inactive: 0 | inactive: 0 | inactive: 0 | inactive: 0 | inactive: 0
COc1ccc(S(=O)(=O)Nc2cc(-c3c(O)ccc4ccccc34)c(O)c3ccccc23)cc1 (10 µM) | inactive: 0 | inactive: 0 | inactive: 0 | inactive: 0 | inactive: 0 | inactive: 0 | inactive: 0 | inactive: 0 | inactive: 0 | inactive: 0 | inactive: 0 | inactive: 0 | inactive: 0 | inactive: 0 | inactive: 0 | inactive: 0 | inactive: 0 | inactive: 0 | inactive: 0 | inactive: 0
Nc1nccc(-c2c(-c3ccc(F)cc3)ncn2C2CCCCC2)n1 (10 µM) | inactive: 0 | inactive: 0 | inactive: 0 | inactive: 0 | inactive: 0 | inactive: 0 | inactive: 0 | inactive: 0 | inactive: 0 | inactive: 0 | inactive: 0 | inactive: 0 | inactive: 0 | inactive: 0 | inactive: 0 | inactive: 0 | inactive: 0 | inactive: 0 | inactive: 0 | inactive: 0
Fc1ccc2[nH]ccc2c1-c1nc(N2CCOCC2)c2sc(CN3CCN(CC4CC4)CC3)cc2n1 (10 µM) | inactive: 0 | inactive: 0 | inactive: 0 | inactive: 0 | inactive: 0 | inactive: 0 | inactive: 0 | inactive: 0 | inactive: 0 | inactive: 0 | inactive: 0 | inactive: 0 | inactive: 0 | inactive: 0 | inactive: 0 | inactive: 0 | inactive: 0 | inactive: 0 | inactive: 0 | inactive: 0
O=c1cc(N2CCOCC2)oc2c(-c3ccc4c(c3)OCCO4)csc12 (2.5 µM) | inactive: 0 | inactive: 0 | inactive: 0 | inactive: 0 | inactive: 0 | inactive: 0 | inactive: 0 | inactive: 0 | inactive: 0 | inactive: 0 | inactive: 0 | inactive: 0 | inactive: 0 | inactive: 0 | inactive: 0 | inactive: 0 | inactive: 0 | inactive: 0 | inactive: 0 | inactive: 0
O=C(O)c1ccc(/C=C/S(=O)(=O)Cc2ccc(Cl)cc2)cc1 [Recilisib] (10 µM) | inactive: 0 | inactive: 0 | inactive: 0 | inactive: 0 | inactive: 0 | inactive: 0 | inactive: 0 | inactive: 0 | inactive: 0 | inactive: 0 | inactive: 0 | inactive: 0 | inactive: 0 | inactive: 0 | inactive: 0 | inactive: 0 | inactive: 0 | inactive: 0 | inactive: 0 | inactive: 0
CO[C@H]1CC[C@H](N2C(=O)CNc3ncc(-c4ccc(C(C)(C)O)nc4)nc32)CC1 (2.5 µM) | inactive: 0 | inactive: 0 | inactive: 0 | inactive: 0 | inactive: 0 | inactive: 0 | inactive: 0 | inactive: 0 | inactive: 0 | inactive: 0 | inactive: 0 | inactive: 0 | inactive: 0 | inactive: 0 | inactive: 0 | inactive: 0 | inactive: 0 | inactive: 0 | inactive: 0 | inactive: 0
COc1cc2c(cc1OC)/C(=C/c1ccc(O)cc1)C(=O)N2 (10 µM) | inactive: 0 | inactive: 0 | inactive: 0 | inactive: 0 | inactive: 0 | inactive: 0 | inactive: 0 | inactive: 0 | inactive: 0 | inactive: 0 | inactive: 0 | inactive: 0 | inactive: 0 | inactive: 0 | inactive: 0 | inactive: 0 | inactive: 0 | inactive: 0 | inactive: 0 | inactive: 0
CC(O)(C#Cc1ccc2c(c1)N(c1nc(N)ncc1Cl)CC2)c1nccs1 (stereo not given) (2.5 µM) | inactive: 0 | inactive: 0 | inactive: 0 | inactive: 0 | inactive: 0 | inactive: 0 | inactive: 0 | inactive: 0 | inactive: 0 | inactive: 0 | inactive: 0 | inactive: 0 | inactive: 0 | inactive: 0 | inactive: 0 | inactive: 0 | inactive: 0 | inactive: 0 | inactive: 0 | inactive: 0

Only kinase-Nluc reporter destabilization hit call (PTK2B) and kinase-Nluc reporter destabilization hit call (PTK2), for some of the entries so far:

| Structure (SMILES) | kinase-Nluc reporter destabilization hit call (PTK2B) | kinase-Nluc reporter destabilization hit call (PTK2) |
| --- | --- | --- |
| Cc1c(Cl)cccc1S(=O)(=O)Nc1nc(NCCc2ccccc2)nc2c1CN(Cc1ccccc1)CC2 (2.5 µM) | inactive: 0 | inactive: 0 |
| C=CC(=O)N1CC[C@@H](Oc2nc(Nc3ccc(N4CCC(N5CCN(C)CC5)CC4)cc3)c(C(N)=O)nc2CC)C1 [Naquotinib (mesylate)] (2.5 µM) | inactive: 0 | inactive: 0 |
